Assay results: PubChem BioAssay AID493014 (National Center for Advancing Translational Sciences (NCATS), 2011)
Among all 340,000 compounds or so, about 170 (0.05%) were called active. The inconclusive results got no clear call from the source; some entries with a clear call stand among them for comparison. Calls follow the shape of the dose curve; as a rule, active = well fitted inhibition curve with a large enough effect in the signal ratio, with a control signal flat (not every such curve was filed as active); inconclusive = small, poorly fitted or top-dose-only effect, or effect the other way, or a change in a side signal; inactive = flat fitted curve, though single readings scatter; the % refers to the signal ratio. A potency beside an inconclusive call is a rough fit, not a confirmed value.

Assay: qHTS Assay to Find Inhibitors of Chronic Active B-Cell Receptor Signaling;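 as to activity change, negative = inhibition: plate controls were basal doxycycline-induced cells for no effect and cells given 10 µM MG132 for full effect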
Conditions: ABC-DLBCL IkBa-CBG/CBR reporter, luminescence ratio (green luciferase fused to IkBa over red control in TMD8 lymphoma cells), 4 h; activity change, negative = inhibition: at 46.1 µM (top of the series)
Procedure, shortened: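 Concentration-response series (up to 46 uM) were applied to TMD8 dual-reporter cells for 4 h at 37C with doxycycline. Green/red ratio, after filter-overlap correction, defined %Activity; red signal alone was normalised to basal cells and zero luminescence.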
Potency is read from the fitted curve at half-maximal effect.

Question: Which activity change, negative = inhibition does the source give for `CCSc1nnc(NC(=O)c2cccc(OCc3c(C)noc3C)c2)s1` here?
Answer: inconclusive: -19.9%

Question: For `Cc1ccc(NC(=O)N2CCc3ccccc32)cc1C`, which Potency is on record?
Answer: inconclusive: 35.5 µM [falling, single point]

Question: For `CC1CCCCC1NC(=O)/C=C/c1nc2ccccc2s1` (centres undefined), which Potency is on record?
Answer: inconclusive: 22.4 µM [falling, single point]

Question: With `CN1C(=O)S/C(=C\c2ccccc2OCc2ccc(C(=O)O)cc2)C1=O` as the molecule, how does the activity change, negative = inhibition read?
Answer: inconclusive: 1.09%

Question: For `COc1ccccc1CNC(=O)CSC(=S)N1CCCC1`, which Potency is on record?
Answer: inconclusive: 13 µM [falling, partial curve, poor fit]

Question: For `O=C(c1ccco1)N(CCC(c1ccccc1)c1ccco1)Cc1ccccc1` (centres undefined), which activity change, negative = inhibition is on record?
Answer: inconclusive: 0.387%

Question: With `COc1ccc(C(=O)c2ccc(N3CCN(C(=O)c4ccc(F)cc4)CC3)c(F)c2)cc1Br` as the molecule, how does the Potency read?
Answer: inconclusive: 2.06 µM [rising, single point]

Question: With `COc1ccc(CCNC(=O)c2cc(-c3ccc(C)cc3O)n[nH]2)cc1OC` as the molecule, how does the activity change, negative = inhibition read?
Answer: inconclusive: -23.8%

Question: With `CCOc1cc2[nH]c(=O)n(CCCN3CCN(c4ccc(OC)cc4)CC3)c(=O)c2cc1OCC` as the molecule, how does the activity change, negative = inhibition read?
Answer: inactive

Question: Which activity change, negative = inhibition does the source give for `CC(=O)c1ccc(NC(=O)C2CCC(C)NC2=O)cc1` (centres undefined) here?
Answer: inconclusive: 10.3%

Question: Which activity change, negative = inhibition does the source give for `Cc1csc2ncnc(N3CCN(C(=S)Nc4ccc(F)cc4F)CC3)c12` here?
Answer: inconclusive: -25.4%

Question: With `COc1ccc(-n2cc(CN(C)C(C)c3ccncn3)c(-c3cccc(F)c3)n2)cc1` (centres undefined) as the molecule, how does the Potency read?
Answer: inconclusive: 7.08 µM [falling, partial curve, poor fit]

Question: With `COc1cccc(C2=CC(c3ccccc3)n3ncnc3N2)c1` (centres undefined) as the molecule, how does the activity change, negative = inhibition read?
Answer: inconclusive: 6.13%

Question: For `N#CCSc1nc2c(c(=O)n1Cc1ccco1)C1(CCCC1)Cc1ccccc1-2`, which Potency is on record?
Answer: inconclusive: 5.01 µM [rising, partial curve, poor fit]

Question: Which Potency does the source give for `COc1cccc(-c2csc(N3CCN(C(=O)Nc4ccc(F)cc4)CC3)n2)c1` here?
Answer: inconclusive: 23.1 µM [falling, partial curve, poor fit]

Question: For `COc1cc(C(=O)Nc2cc(C)c(OCC(=O)N3CCOCC3)c(C)c2)cc(OC)c1OC`, which activity change, negative = inhibition is on record?
Answer: inconclusive: 3.39%

Question: Which activity change, negative = inhibition does the source give for `COc1ccc2c(c1)C(=O)/C(=C/C=C/c1ccccc1)CC2` here?
Answer: inactive

Question: Which Potency does the source give for `CCC(=O)Nc1cccc(NC(=S)NC(=O)c2ccccc2Cl)c1` here?
Answer: inconclusive: 35.5 µM [rising, single point]

Question: For `NCc1oc(-c2ccccc2)cc1C(=O)O`, which Potency is on record?
Answer: inconclusive: 35.5 µM [rising, partial curve, poor fit]

Question: For `CC1(C)Cc2c(c(=S)nc(-c3ccccc3)n2CCO)CO1`, which activity change, negative = inhibition is on record?
Answer: inconclusive: 3.61%

Question: With `CC(=O)Nc1cccc(NC(=O)COc2ccc3c(c2)CCC3)c1` as the molecule, how does the Potency read?
Answer: inconclusive: 25.9 µM [falling, partial curve, poor fit]

Question: For `CCn1c(=O)cc(SCC(=O)NCc2ccccn2)c2ccccc21`, which activity change, negative = inhibition is on record?
Answer: inconclusive: -16.4%

Question: With `CCN(CC)S(=O)(=O)c1ccc(Oc2ccccc2OC)cc1` as the molecule, how does the activity change, negative = inhibition read?
Answer: inactive

Question: Which activity change, negative = inhibition does the source give for `CC(=O)Nc1ccc(NC(=O)CCCNC(=O)c2ccc(Cl)cc2)cc1` here?
Answer: inconclusive: 0.66%

Question: For `Cc1cc(N/N=C/c2ccncc2)c([N+](=O)[O-])cc1[N+](=O)[O-]`, which activity change, negative = inhibition is on record?
Answer: inconclusive: 4.73%

Question: Which activity change, negative = inhibition does the source give for `Cc1cc(C)n(CC(O)COc2ccccc2Br)n1` (centres undefined) here?
Answer: inconclusive: 1.63%

Question: Which activity change, negative = inhibition does the source give for `CCOC(=O)CN(C(=O)COC(=O)C1=NNC(=O)CC1)c1ccc(F)cc1` here?
Answer: inconclusive: 4.53%

Question: For `COc1ccc(CCNC(=O)c2ccc(Cl)cc2Cl)cc1`, which activity change, negative = inhibition is on record?
Answer: inconclusive: -21.6%

Question: Which Potency does the source give for `O=C(CCl)N=c1sccn1Cc1cccc2ccccc12` here?
Answer: inconclusive: 25.1 µM [falling, single point]

Question: With `CC(=O)C1=C(N2CCCCC2)CCC1=O` as the molecule, how does the activity change, negative = inhibition read?
Answer: inconclusive: 11.9%

Question: Which Potency does the source give for `COc1ccc(Cl)cc1C(=O)NNC(=O)c1cc2ccccc2o1` here?
Answer: inconclusive: 18.4 µM [falling, single point]

Question: For `Cc1ccc(Cc2c[nH]c(=S)s2)cc1`, which activity change, negative = inhibition is on record?
Answer: inconclusive: -10.1%

Question: With `O=C(NC(=S)Nc1ccc(S(=O)(=O)N2CCCCC2)cc1)c1cccs1` as the molecule, how does the activity change, negative = inhibition read?
Answer: inactive

Question: For `Cc1onc(-c2ccccc2Cl)c1C(=O)NNC(=O)c1ccccc1F`, which Potency is on record?
Answer: inconclusive: 3.16 µM [falling, partial curve]

Question: With `CCOc1cccc(N2C(=O)CC(N3CCN(c4nc5ccccc5s4)CC3)C2=O)c1` (centres undefined) as the molecule, how does the activity change, negative = inhibition read?
Answer: inconclusive: -2.2%

Question: With `CN1c2ccccc2-c2nc(SCC(=O)Nc3ccccc3)ncc2S1(=O)=O` as the molecule, how does the activity change, negative = inhibition read?
Answer: inactive

Question: For `COc1ccc(C(=O)OCCN2CCCCC2)cc1`, which activity change, negative = inhibition is on record?
Answer: inconclusive: 1.83%

Question: Which Potency does the source give for `COc1cc(CNc2ccc(C)c(C)c2)cc(OC)c1OC` here?
Answer: inconclusive: 11.2 µM [falling, single point]

Question: With `Clc1ccc(-c2csc(N3CCSCC3)n2)cc1` as the molecule, how does the activity change, negative = inhibition read?
Answer: inconclusive: 0.685%

Question: For `CC1(OC(=O)C2CCCC2)C(=O)C=C2C=C(c3ccsc3)N(C(CO)CO)C=C2C1=O` (centres undefined), which activity change, negative = inhibition is on record?
Answer: inconclusive: 7.62%

Question: With `COc1cccc(/C=C(/CC(=O)Nc2ccc(N3CCOCC3)cc2)c2nc3ccccc3s2)c1` as the molecule, how does the Potency read?
Answer: inconclusive: 14.6 µM [falling, partial curve]

Question: For `N#Cc1nnn(Cc2ccccc2)c1N`, which activity change, negative = inhibition is on record?
Answer: inconclusive: 26.4%

Question: For `COc1cccc(/C=C2\Oc3cc(OCC(=O)N4CCCC4)ccc3C2=O)c1OC`, which Potency is on record?
Answer: inconclusive: 22.4 µM [falling, single point]

Question: With `CCCCNC(=O)NCCN1CCOCC1` as the molecule, how does the activity change, negative = inhibition read?
Answer: inconclusive: -2.68%

Question: For `CCc1ccccc1N(CC(=O)NCc1ccco1)C(=O)c1snc(C(N)=O)c1N`, which activity change, negative = inhibition is on record?
Answer: inconclusive: -0.536%

Question: With `Cc1ccc(-c2nc(S(=O)(=O)c3ccc(C)cc3)c(N3CCOCC3)o2)cc1` as the molecule, how does the activity change, negative = inhibition read?
Answer: inconclusive: -2.87%

Question: Which activity change, negative = inhibition does the source give for `O=C(N/N=C/c1ccc(Cl)s1)C(O)c1ccccc1` (centres undefined) here?
Answer: inconclusive: -21.5%

Question: With `COc1ccc(NC(=O)CO/N=C2/CCCc3nonc32)c(OC)c1` as the molecule, how does the activity change, negative = inhibition read?
Answer: inconclusive: -24.4%

Question: For `CC(Sc1nc(N)cc(N)n1)C(=O)NCCC1=CCCCC1` (centres undefined), which Potency is on record?
Answer: inconclusive: 6.51 µM [falling, single point]

Question: Which activity change, negative = inhibition does the source give for `O=C(NCC(=O)N1CCCCCC1)c1ccc(OC(F)F)cc1` here?
Answer: inactive

Question: Which activity change, negative = inhibition does the source give for `COc1ccc(C(=O)N2CCC(C(=O)Nc3ccc(OC)c(OC)c3)CC2)cc1` here?
Answer: inconclusive: -0.0356%

Question: With `Cc1cc(N)n2nc(-c3ccccc3)cc2n1` as the molecule, how does the Potency read?
Answer: inconclusive: 4.11 µM [falling, single point]

Question: With `Cc1cc2ccc(C)c(C)c2nc1SCC(=O)c1cccs1` as the molecule, how does the activity change, negative = inhibition read?
Answer: inconclusive: 21.1%

Question: For `Cc1cc(NC(=O)c2ccc([N+](=O)[O-])o2)ccc1NC(=O)c1ccco1`, which activity change, negative = inhibition is on record?
Answer: inconclusive: -22.4%

Question: For `CCOC(=O)N1CCN(c2c(NCCN3CCN(c4ccccc4F)CC3)c(=O)c2=O)CC1`, which activity change, negative = inhibition is on record?
Answer: inconclusive: 10.9%

Question: Which activity change, negative = inhibition does the source give for `COC(=O)CCC(=O)Nc1cccc(Br)c1` here?
Answer: inconclusive: 25.2%

Question: With `N#CCCCSc1nnc(-c2ccc(Cl)cc2)n1-c1ccccc1` as the molecule, how does the activity change, negative = inhibition read?
Answer: inconclusive: -13.6%

Question: With `Cn1c(-c2ccccc2)c(C(=O)CCl)c2ccccc21` as the molecule, how does the Potency read?
Answer: inconclusive: 6.31 µM [falling, single point]

Question: With `CCc1nnc(NC(=O)CSc2ncnc3c2oc2ccccc23)s1` as the molecule, how does the Potency read?
Answer: inconclusive: 5.17 µM [falling, partial curve, poor fit]

Question: With `O=C(Nc1ccc(N2CCOCC2)c(Cl)c1)c1c(F)c(F)c(F)c(F)c1F` as the molecule, how does the Potency read?
Answer: inconclusive: 1.3 µM [falling, full curve]

Question: For `Cc1c(C(=O)OCC(=O)N2CC(=O)Nc3ccccc32)oc2ccc(Br)cc12`, which activity change, negative = inhibition is on record?
Answer: inconclusive: 0.163%

Question: For `Cc1nc(N(CCO)C2CCCCC2)c2nnn(Cc3ccccc3)c2n1`, which activity change, negative = inhibition is on record?
Answer: inconclusive: -0.244%

Question: For `COC(=O)CNC(=O)c1ccc(OC2CCN(C(=O)C3CC3)CC2)cc1`, which activity change, negative = inhibition is on record?
Answer: inconclusive: -5.71%

Question: For `CCN(CC)S(=O)(=O)c1cccc(N=Nc2c(O)c3ccccc3oc2=O)c1`, which Potency is on record?
Answer: inconclusive: 35.5 µM [falling, single point]

Question: Which activity change, negative = inhibition does the source give for `O=c1c2ccccc2nc2sc(Nc3cccc(C(F)(F)F)c3)nn12` here?
Answer: inconclusive: 36%

Question: With `CC(C)(C)NC(=O)CCN(/N=C/c1ccncc1)C1=NS(=O)(=O)c2ccccc21` as the molecule, how does the activity change, negative = inhibition read?
Answer: inactive

Question: With `Cc1ccc(C2Nc3ccccc3C(=O)N2Cc2ccco2)cc1` (centres undefined) as the molecule, how does the activity change, negative = inhibition read?
Answer: inactive

Question: With `O=C(O)c1ccc(CSc2nnnn2C2CCCCC2)cc1` as the molecule, how does the activity change, negative = inhibition read?
Answer: inconclusive: -1.49%

Question: For `O=C(CN1C(=O)S/C(=C\C=C\c2ccccc2)C1=O)Nc1cccc(O)c1`, which Potency is on record?
Answer: inconclusive: 23.1 µM [falling, single point]

Question: Which Potency does the source give for `COc1ccccc1C1c2ccc3ccccc3c2Oc2ncn(CCCO)c(=N)c21` (centres undefined) here?
Answer: inconclusive: 35.5 µM [falling, single point]

Question: With `COc1cccc(CNC(=O)c2ccc(Cl)c(S(=O)(=O)N3CCOCC3)c2)c1` as the molecule, how does the activity change, negative = inhibition read?
Answer: inconclusive: -0.888%

Question: With `COc1cc(/C=C(\C#N)c2nc3c(s2)CCCC3)ccc1O` as the molecule, how does the activity change, negative = inhibition read?
Answer: inconclusive: 2.58%

Question: For `CCN(CC(=O)Nc1cccc(Br)c1)Cc1nc2ccccc2c(=O)[nH]1`, which activity change, negative = inhibition is on record?
Answer: inactive

Question: With `CCOC(=O)c1c(NC(=O)CN2C(=O)NC(C)(c3ccccc3)C2=O)sc(C)c1C` (centres undefined) as the molecule, how does the activity change, negative = inhibition read?
Answer: inactive

Question: With `O=C(COC(=O)/C=C/c1ccc([N+](=O)[O-])cc1)NNC(=O)c1ccccc1` as the molecule, how does the activity change, negative = inhibition read?
Answer: inactive

Question: For `CCOc1ccc(/C=C2\SC(=S)N(CCC(=O)Nc3ccc(C(=O)O)cc3)C2=O)cc1`, which activity change, negative = inhibition is on record?
Answer: inconclusive: -5.84%

Question: For `CN1C(=O)/C(=C/c2ccc(O)c([N+](=O)[O-])c2)NC1=S`, which activity change, negative = inhibition is on record?
Answer: inconclusive: 23.4%

Question: With `COc1ccc(/C=N/OCC(=O)Nc2cc(C)on2)cc1OC` as the molecule, how does the Potency read?
Answer: inconclusive: 29.1 µM [falling, partial curve, poor fit]

Question: Which activity change, negative = inhibition does the source give for `CC1(C)OC(=O)C(=CNCC(=O)NCC(=O)O)C(=O)O1` here?
Answer: inconclusive: 29.1%
